PubChem BioAssay AID1259405 | NCATS, 2018

- Screen: 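Knock-downs that lift recombinant protein yield in hamster ovary cells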 (primary screen)
- System: Chinese hamster CHO-K1 ovary cells with stable secreted eGFP expression
- Knock-down reagent: single siRNA against mouse genes, 0.8 pmol siRNA per well (2 µl of 400 nM stock)
- Timing: 3 days
- Measurement: 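Per-well intracellular GFP measured by laser scanning cytometry, plus viability from ATP luminescence, each relative to plate median of non-targeting control wells, in %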
- Reading the numbers: GFP, % of control: higher = more GFP per well, higher productivity; viability (ATP), % of control: higher = more viable cells (more ATP)
- Rule for the call: 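a knock-down is called active if GFP reaches 120% or more of non-targeting control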
In all, the deposit lists about 50,000 reagents; below is a part drawn at random. In the full data, about 4,000 (8%) were called active. 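Mouse siRNA library applied to hamster cells; one well for each siRNA.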 The numbers tell different reagents against one gene apart.

gene knocked down,reagent,"GFP, % of control","viability (ATP), % of control",outcome
Depp1,1,114,76.5,inactive
Depp1,2,100,83.6,inactive
Depp1,3,124,123,active
Cntd1,1,86.5,95.3,inactive
Cntd1,2,80.9,51.6,inactive
Cntd1,3,78.2,81.1,inactive
Or2ag20,1,28.8,23.1,inactive
Or2ag20,2,75.8,75.6,inactive
Or2ag20,3,89.6,59,inactive
Psg25,1,96,67.8,inactive
Psg25,2,19.8,26.6,inactive
Psg25,3,81.3,98.8,inactive
Krtap21-1,1,124,95.8,active
Krtap21-1,2,83.7,80.4,inactive
Krtap21-1,3,126,92,active
Ccdc117,1,58.9,50.1,inactive
Ccdc117,2,68.8,96.9,inactive
Ccdc117,3,92.7,126,inactive
Gorasp1,1,117,90.6,inactive
Gorasp1,2,22.6,28.2,inactive
Gorasp1,3,114,84.8,inactive
Zbtb39,1,61.9,106,inactive
Zbtb39,2,35.5,48.4,inactive
Zbtb39,3,74.2,87.7,inactive
Mapk13,1,53.5,64.3,inactive
Cimip2a,1,68.8,67.4,inactive
Cimip2a,2,81.5,68.7,inactive
Cimip2a,3,91.9,104,inactive
Hypk,1,110,90.3,inactive
Hypk,2,88.2,74.3,inactive
Hypk,3,57.2,61.6,inactive
Capn3,1,86.2,89.1,inactive
Capn3,2,80.8,83.6,inactive
Capn3,3,69.4,70.7,inactive
Or5ac16,1,77.1,71.3,inactive
Or5ac16,2,54,72,inactive
Or5ac16,3,70.8,107,inactive
Lyrm4,1,44.5,74.5,inactive
Lyrm4,2,61.5,74,inactive
Lyrm4,3,61,80.4,inactive
Stag1,1,101,59.6,inactive
Stag1,2,100,87.4,inactive
Stag1,3,91.5,65.3,inactive
Ckmt2,1,70.9,72.4,inactive
Ap1s1,1,96.1,126,inactive
Ap1s1,2,95.7,88.2,inactive
Sdf2,1,241,173,active
Sdf2,2,89.6,62.9,inactive
Sdf2,3,56.8,48.7,inactive
Selenbp2,1,162,101,active
Selenbp2,2,88.1,58.5,inactive
Selenbp2,3,56.6,70,inactive
Atad3aos,1,53.7,44,inactive
Atad3aos,2,99,88.2,inactive
Atad3aos,3,134,82.5,active

Reformatted: results already given
Depp1 #3 → GFP, % of control = 124; viability (ATP), % of control = 123; outcome = active
Cntd1 #1 → GFP, % of control = 86.5; viability (ATP), % of control = 95.3; outcome = inactive
Cntd1 #2 → GFP, % of control = 80.9; viability (ATP), % of control = 51.6; outcome = inactive
Cntd1 #3 → GFP, % of control = 78.2; viability (ATP), % of control = 81.1; outcome = inactive
Or2ag20 #1 → GFP, % of control = 28.8; viability (ATP), % of control = 23.1; outcome = inactive
Or2ag20 #2 → GFP, % of control = 75.8; viability (ATP), % of control = 75.6; outcome = inactive
Or2ag20 #3 → GFP, % of control = 89.6; viability (ATP), % of control = 59; outcome = inactive

The listing continues:
gene knocked down,reagent,"GFP, % of control","viability (ATP), % of control",outcome
Ptprv,1,82.3,116,inactive
Ptprv,2,35.9,55.9,inactive
Ptprv,3,112,116,inactive
Ciao1,1,60.1,47.6,inactive
Ciao1,2,83.6,87.5,inactive
Ciao1,3,90.3,103,inactive
Itga11,1,36.6,64.7,inactive
Itga11,2,65,73.5,inactive
Itga11,3,95.1,81.6,inactive
Steap4,1,181,126,active
Steap4,2,90.3,109,inactive
Steap4,3,95.6,77.7,inactive
Nup85,1,64.9,42.6,inactive
Nup85,2,112,92.9,inactive
Nup85,3,81.9,95.3,inactive
Crtc3,1,6.85,34,inactive
Crtc3,2,75.4,103,inactive
Crtc3,3,90.5,114,inactive
Rhcg,1,60.6,72.2,inactive
Rhcg,2,58,72.8,inactive
Rhcg,3,71.2,62.9,inactive
Nkiras1,1,64.5,52.6,inactive
Nkiras1,2,59.7,66.2,inactive
Nkiras1,3,66.4,72,inactive
Traf7,1,95.7,72.9,inactive
Traf7,2,93.1,104,inactive
Traf7,3,74.5,61.3,inactive
Pfdn6,1,42.8,61.7,inactive
Pfdn6,2,91.9,96.4,inactive
Pfdn6,3,78,77.2,inactive
Slc35c1,1,51.2,65.2,inactive
Slc35c1,2,34.2,56.9,inactive
Slc35c1,3,78.2,76.5,inactive
Ido2,1,70.1,33.9,inactive
Ido2,2,89.7,87.7,inactive
Ido2,3,103,98.3,inactive
Neurl3,1,53.9,56.2,inactive
Neurl3,2,55.8,42,inactive
Neurl3,3,7.13,9.72,inactive
Ppm1e,1,91.9,95.6,inactive
Ppm1e,2,87.4,73.7,inactive
Ppm1e,3,82.2,74.5,inactive
Trappc14,1,103,61,inactive
Trappc14,2,89.1,88.6,inactive
Trappc14,3,84.8,79.5,inactive
Sf3b4,1,97,95.5,inactive
Sf3b4,2,71.7,63.7,inactive
Insl6,1,62.3,49.8,inactive
Insl6,2,47.8,38.7,inactive
Insl6,3,61.9,54.5,inactive
Sel1l,1,71.7,87.5,inactive
Sel1l,2,82.1,68.7,inactive
Sel1l,3,68.3,80.2,inactive
